Measurements reported in patent publication US9074289B2, “Environmentally friendly corrosion inhibitor” (NALCO COMPANY, priority 2011, dated 2015).
Some results were stated once for a whole list of compounds, not compound by compound.

Assay: Log Pow (octanol-water partition coefficient), OECD 117
Type: physicochemical
Settings: Method: OECD 117
Excerpt: The bioaccumulation potential of chemical substances has generally been determined from the n-octanol/water partition coefficient (expressed as log Pow) and the bioconcentration factor. The log Pow represents the ratio of a material that dissolves or disperses in octanol (the oil phase) versus water. This coefficient is used as a chemical surrogate for bioaccumulative potential. A log Pow of less than ten is preferred, a log Pow of less than six is more preferred, and a log Pow of less than three is most preferred.
(i) acute toxicity to the most sensitive marine species (skeletonema costatum) must be greater than EC50 of 10 mg/L; (ii) bioaccumulation potential (as indicated by Log Pow, the octanol-water partition coefficient) must be below 3 or the molecular weight must be greater than 700; and (iii) biodegradation in 28 days is greater than 60%. Corrosion inhibitor intermediates such as the quaternary ammonium salt were tested for their level of acute aquatic toxicity (Table 9), Log Pow (Table 10), and their ability to biodegrade in 28 days (Table 10).

Question: For `NC(=O)c1ccc[n+](Cc2cccc3ccccc23)c1.[Cl-]` [Compound 4], which “Log Pow” value is on record?
Answer: Its value is “less than 3”.
